# Data as given in PubChem BioAssay AID248 (DTP/NCI, 2004).
# The list shows only some results of the screen, not a fair sample: it is rich in T/C values a quarter to a half above the control, in often repeated tests (any T/C) and in doses without a T/C. Other doses and runs of a compound stand elsewhere. T/C is the treated group as % of the vehicle group. Some doses have a count of surviving animals in place of a T/C: the source files T/C as zero there, which appears to mark a toxic dose or a test without result, not a measured value. Some doses without a T/C left all or most animals alive at the check, yet need not have been tolerated: survival well below the control is almost never listed, so the zero probably covers shortened survival too. Survivors were counted at the toxicity check, usually on the fifth day, unless a day is given; later deaths do not show. Schedule codes are those of the source, read here as Q, the interval in days (D) or hours (H), X, the number of doses. For survival time, the PubChem record calls one and a half times the control and up active, and a quarter to a half above the control has no call in these data; cut-offs in other NCI protocols can differ.
# Test system: L1210 leukemia ip in BDF1 mice, survival T/C
# Assay: NCI In Vivo Anticancer Drug Screen. Data for tumor model L1210 Leukemia (intraperitoneal) in B6D2F1 (BDF1) mice
# Conditions: T/C endpoint: mean survival time, higher T/C = longer survival
# [1] = dose: 200.0 mg/kg/injection, schedule: Q01DX001 (ip), vehicle: saline
# [2] = dose: 400.0 mg/kg/injection, schedule: Q01DX001 (ip), vehicle: saline
# [3] = dose: 400.0 mg/kg/injection, schedule: Q01DX009 (ip), vehicle: alcohol
structure (smiles),measurement,setting,value
CCN(CC)CCNc1ccc([N+](=O)[O-])cc1[N+](=O)[O-],survivor count,"dose: 200.0 mg/kg/injection, schedule: Q01DX009 (ip), vehicle: saline with Tween-80",3 of 6
same,survivor count,"dose: 400.0 mg/kg/injection, schedule: Q01DX001 (ip), vehicle: Klucel (hydroxypropylcellulose) (HPC)",1 of 6
Cc1ccc(S(=O)(=O)OCC2OC(n3ccc(=O)[nH]c3=O)C3OC(C)(C)OC23)cc1 (stereo not given),T/C,"dose: 200.0 mg/kg/injection, schedule: Q01DX005 (ip), vehicle: saline",140 % of control
O=[N+]([O-])c1ccc(S(=O)(=O)SC(F)(F)F)cc1,survivor count,"dose: 300.0 mg/kg/injection, schedule: Q01DX001 (ip), vehicle: saline",1 of 6
O=C(OCCOCCN1CCCCC1)N1c2ccccc2Sc2cccnc21,survivor count,"dose: 100.0 mg/kg/injection, schedule: Q01DX009 (ip), vehicle: saline",2 of 6
same,survivor count,[1],0 of 4
same,survivor count,"dose: 200.0 mg/kg/injection, schedule: Q04DX003 (ip), vehicle: saline",0 of 4
same,survivor count,[2],0 of 4
same,survivor count,"dose: 400.0 mg/kg/injection, schedule: Q04DX003 (ip), vehicle: saline",0 of 4
CCN1CCCC(Nc2cc(C)nc(Nc3nc4cc(Cl)c(Cl)cc4[nH]3)n2)C1 (stereo not given),survivor count,"dose: 50.0 mg/kg/injection, schedule: Q01DX009 (ip), vehicle: saline with Tween-80",3 of 6
same,survivor count,"dose: 100.0 mg/kg/injection, schedule: Q01DX009 (ip), vehicle: saline with Tween-80",4 of 6
same,survivor count,[1],0 of 6
same,survivor count,[2],0 of 6
CC1(C)NC(=S)NC1=S,survivor count,[3],3 of 6
Cc1cccc(C)c1NC(=O)c1c(Cl)c(Cl)c(Cl)c(Cl)c1C(=O)O,survivor count,"dose: 200.0 mg/kg/injection, schedule: Q01DX009 (ip), vehicle: Klucel (hydroxypropylcellulose) (HPC)",3 of 6
same,survivor count,"dose: 400.0 mg/kg/injection, schedule: Q01DX009 (ip), vehicle: Klucel (hydroxypropylcellulose) (HPC)",0 of 6
Clc1nc2ccccc2s1,survivor count,[3],6 of 6
Cc1cc(C(=O)c2ccccn2)c2cccc(C(F)(F)F)c2n1,survivor count,"dose: 400.0 mg/kg/injection, schedule: Q04DX003 (ip), vehicle: saline with Tween-80",3 of 6
c1ccc(C23c4ccccc4C2c2ccccc23)nc1 (stereo not given),survivor count,"dose: 100.0 mg/kg/injection, schedule: Q01DX009 (ip), vehicle: gum acacia",0 of 6
same,survivor count,"dose: 200.0 mg/kg/injection, schedule: Q01DX009 (ip), vehicle: gum acacia",0 of 6
same,survivor count,"dose: 400.0 mg/kg/injection, schedule: Q01DX009 (ip), vehicle: gum acacia",0 of 6
Cc1ccc(NC2=NCCO2)cc1,survivor count,"dose: 400.0 mg/kg/injection, schedule: Q01DX001 (ip), vehicle: carboxymethylcellulose (CMC)",1 of 4
CCOCc1nc(N)nc(N)c1-c1cccc(Cl)c1,survivor count,"dose: 400.0 mg/kg/injection, schedule: Q01DX009 (ip), vehicle: saline with Tween-80",0 of 6
O=c1[nH]nnc2ccccc12,survivor count,"dose: 200.0 mg/kg/injection, schedule: Q01DX009 (ip), vehicle: saline",1 of 6
same,survivor count,"dose: 400.0 mg/kg/injection, schedule: Q04DX003 (ip), vehicle: alcohol",2 of 6
